The values below come from PMC12618074.

Sequences of proteins named here, by UniProt entry; tags and fusion partners are left off.
UniProt P49841: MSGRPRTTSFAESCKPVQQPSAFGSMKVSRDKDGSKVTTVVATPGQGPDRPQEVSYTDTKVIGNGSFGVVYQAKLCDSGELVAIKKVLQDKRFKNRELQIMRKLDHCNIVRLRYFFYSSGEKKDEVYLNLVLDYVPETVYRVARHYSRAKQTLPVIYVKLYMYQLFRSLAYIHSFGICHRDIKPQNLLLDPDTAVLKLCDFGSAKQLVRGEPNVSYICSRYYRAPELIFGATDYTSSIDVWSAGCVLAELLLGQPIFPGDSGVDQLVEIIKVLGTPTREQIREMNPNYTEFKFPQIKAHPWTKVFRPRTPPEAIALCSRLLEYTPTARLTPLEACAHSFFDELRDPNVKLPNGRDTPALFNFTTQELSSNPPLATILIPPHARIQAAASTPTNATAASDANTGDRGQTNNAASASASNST

Results are given in words; binding and its absence hold for the method and conditions named. In cells and extracts the contact can be indirect. Some entries that bind do so weakly or less than the wild type.

In this experiment the target is WWP1 E3 ubiquitin ligase (UniProt Q9H0M0). The experiment in a line: co-IP; IP of WWP1 and GSK3β; details in Supplemental Figure 13B, C (not shown).

Consider “GSK3β (in the IP with WWP1, Supplemental Figure 13B) (from UniProt P49841 1-420) (enzyme)”, for which the binding result is “binds”.
